# Assay results from patent US20260217701A1, “SELECTIVE BET INHIBITORS AND USES THEREOF” (Tay Therapeutics Limited, priority 2022, published 2026).
# “And” between values parts separate entries of the source, which are not always exact repeats. Equal values may be shown once. This continues a long series; more values of the same kind are listed elsewhere.
# Legend:
# IL-22 = IL-22 release from activated human PBMCs (ELISA); assay type: cell-based; conditions: Compound Conc. 0.003703704 μM; Donors 1-6, two values per donor
# Method: Human PBMCs used to analyze inhibition of CXCL10 were collected from 8 donors, PBMCs used to analyze inhibition of IL-17A were collected from 7 donors, and PBMCs used to analyze inhibition of IL-22 were collected from 6 donors. Compounds were serially diluted in 10 mM DMSO and further diluted in assay media to 100× the required final concentration, of which 2 μL was added to the specified well. […] The cell culture supernatant was collected and levels of IL-17A and IL-22 in the supernatant were assessed by ELISA (Invitrogen).
# [1] = tested on: imiquimod-induced psoriasis; experiment: Imiquimod-induced psoriasis model; assay type: in vivo, mice; conditions: individual animals
# Description: Imiquimod-induced psoriasis is a model of psoriasis in mice that induces psoriasis-like dermatitis. The pathology closes resembles human plaque-type psoriasis and is a valuable tool for testing new therapies against psoriasis. […] Compound A was formulated in a 5% DMSO/40% PEG-400/55% (0.9% NaCl w/v water) solution (Table 2F). Experimental groups for the study are outlined in Table 4. Prior to study initiation, the backs of all animals in the study were depilated to allow for induction of psoriasis and monitoring of disease progression.
# Once assigned to experimental groups, on Day 1 and continuing through Day 14, topical imiquimod (IMI; Aldara™ containing 5% Imiquimod) was administered to the dorsal depilated animals, and animals in group 1 received topical administration of Excipial® hydrocream (65 mg). […] Clobetasol was applied topically for animals in group 11.
# Body weights were recorded three times a week from Day 1 to Day 8, and daily from Day 8 until the study end at Day 15. At termination on D15 the spleen weight ratio was determined. Disease severity was assessed using the psoriasis area severity index (PASI) daily from Day 8 until study completion on Day 15. The PASI score was calculated based on three parameters (presence of erythema, induration of the skin, and peeling of the skin at the area of induction) on a scale of 0 to 4 (0=no more or absence, 1=low, 2=moderate, 3=high, 4=severe). The PASI score for each animal was calculated as the sum of the score of each parameter measured. The score of the use of enrichment (SUE) was also assessed daily from Day 8 to Day 15. At study completion on Day 15, animal behavior was evaluated using an open field to assess distance travelled, number scratching, and licking and rearing performed in 10 minutes. Upon study termination animals were sacrificed, the spleen was excised and weighed, and blood samples were collected. Serum was isolated from the blood sample for cytokine and other biomarker analysis. IL-1B, IL-6, IL-17, and TNF-α assayed using simple plex technique on an ELLA automated immunoassay system. IL-22 and IL-23 were assayed by ELISA.
# The imiquimod-induced model of psoriasis was used to assess the efficacy of Compound A in treating psoriasis. […] Treatment started on Day 8 after induction so reference to day 1 of treatment is to Day 8 and day 7 of treatment is to Day 14.
compound,measurement,setting,value
"Cn1cc(-c2ccccc2)c(-c2cn(C)c(=O)c3[nH]c(-c4cnn(C(F)(F)F)c4)cc23)cc1=O [Compound A, 6-methyl-4-(1-methyl-2-oxo-5-phenyl-1,2-dihydropyridin-4-yl)-2-(1-(trifluoromethyl)-1H-pyrazol-4-yl)-1,6-dihydro-7H-pyrrolo[2,3-c]pyridin-7-one]",Percent Inhibition Relative to Control (IL-22),IL-22,68.04% and 61.67% and 51.81% and 80.73% and 79.65% and 75.51% and 62.59% and 54.19%
same,PASI Scores,"[1]; IMI + Compound A 3 mg/kg, D9, 3 mg/kg",7
same,PASI Scores,"[1]; IMI + Compound A 3 mg/kg, D13, 3 mg/kg",3 and 1
same,PASI Scores,"[1]; IMI + Compound A 10 mg/kg, D8 (day treatment started), 10 mg/kg",6 and 9 and 7 (3×) and 5 and 8 (2×)
same,PASI Scores,"[1]; IMI + Compound A 10 mg/kg, D9, 10 mg/kg",3 (2×) and 6 (2×) and 8 and 4 and 5 and 7
same,PASI Scores,"[1]; IMI + Compound A 10 mg/kg, D10, 10 mg/kg",2 and 4 (2×) and 5 (3×) and 3 and 6
same,PASI Scores,"[1]; IMI + Compound A 10 mg/kg, D11, 10 mg/kg",5 (3×) and 6 and 3 (2×) and 4 (2×)
same,PASI Scores,"[1]; IMI + Compound A 10 mg/kg, D12, 10 mg/kg",5 and 3 and 1 and 2 (3×) and 4 (2×)
same,PASI Scores,"[1]; IMI + Compound A 10 mg/kg, D13, 10 mg/kg",2 (4×) and 1 (4×)
same,PASI Scores,"[1]; IMI + Compound A 10 mg/kg, D14, 10 mg/kg",1 (5×) and 0 (3×)
same,PASI Scores,"[1]; IMI + Compound A 10 mg/kg, D15, 10 mg/kg",0 (5×) and 1 (3×)
